# Measurements published in PMC10463865.
# These are yes or no findings as the source states them, for the method shown. In cells and extracts the contact can be indirect. A yes stands for co-enrichment or nearness to the bait. Other partners may have been found.
# B1: SEM3A (protein, UniProt Q90607 23-772)
# chain: QHVKNNVPRLKLSYKEMLESNNIVNFNGLANSSSYHTFLLDEERSRLYVGAKDHIFSFNLVNIKEYQKIVWPVSHSRRDECKWAGKDILRECANFIKVLKTYNQTHLYACGTGAFHPMCTYIEVGSHPEDNIFRMEDSHFENGRGKSPYDPKLLTASLLVDGELYSGTAADFMGRDFAIFRTLGHHHPIRTEQHDSRWLNDPRFISAHLIPESDNPEDDKIYFFFRENAIDGEHTGKATHARIGQICKNDFGGHRSLVNKWTTFLKARLICSVPGPNGIDTHFDELQDVFLMNSKDPKNPIVYGVFTTSSNIFKGSAVCMYSMTDVRRVFLGPYAHRDGPNYQWVPYQGRVPYPRPGTCPSKTFGGFDSTKDLPDEVITFARSHPAMYNPVFPINSRPIMIKTDVDYQFTQIVVDRVDAEDGQYDVMFIGTDIGTVLKVVSIPKETWHELEEVLLEEMTVFREPTVISAMKISTKQQQLYIGSATGVSQLPLHRCDVYGKACAECCLARDPYCAWDGSSCSRYFPTAKRRTRRQDIRNGDPLTHCSDLQHHDNPSGQTLEEKIIYGVENSSTFLECSPKSQRAIVYWQFQKQNDDHKVEIKVDDRMIRTEQGLLLRSLQRRDSGIYFCHAVEHGFIQTLLKVTLEVIDTDHLEELLHKEEDADASKTKDATNSMTPSQKIWYRDFMQLINHPNLNTMDEFCEQVWKRDRKQRRQRPANAQVNTNKWKHLQENKKGRNRRTHEFERAPRSV
# Target: GST-EspE3 (Escherichia coli (avian pathogenic, strain AE81))
# Experiment: affinity purification with mass spectrometry; GST pull-down: 125 ug GST-EspE3 (bait) held on GST agarose, 200 ug CTE cell lysate protein (prey), 4 C overnight; eluate on SDS-PAGE, silver stain, bands by HPLC and MS; compared with controls without bait and without prey; only the target purified
binder,measurement,value
B1,binding,binds
